The source of these data is PubChem BioAssay AID493014 (National Center for Advancing Translational Sciences (NCATS), 2011).

Where “and” joins values, the source holds several entries; their conditions need not be identical. Identical values can stand only once. The list shows a part of the results. Shown are side measurements of this screen, not its main read-out; they come without a call. Most of these compounds were active or inconclusive in the main read-out, so they are no random draw. The note in brackets gives the kind of curve behind each potency; many fits are weak.

The term AC50 denotes the midpoint of the concentration-response curve, whichever way the signal moves.

The nature of the test: qHTS Assay to Find Inhibitors of Chronic Active B-Cell Receptor Signaling. The settings on record: ABC-DLBCL IkBa-CBG/CBR reporter, luminescence ratio (green luciferase fused to IkBa over red control in TMD8 lymphoma cells), 4 h. The method, boiled down: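 Concentration-response series (up to 46 uM) were applied to TMD8 dual-reporter cells for 4 h at 37C with doxycycline. Green/red ratio, after filter-overlap correction, defined %Activity; red signal alone was normalised to basal cells and zero luminescence.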
On the technique in general: qHTS replaces the single test concentration by a dilution series.

The mark [1] stands for this setting: measured here: CBR red luminescence, cell number.
Where [2] appears, read: measured here: IkBa-CBG green luminescence.

Turning to `COc1ccc(C2NCc3ccc4c(c3-n3cccc32)OCO4)cc1O` (centres undefined), the AC50 under setting [1] was 18.4 µM [falling, single point].

Turning to `O=C(CSc1ccccn1)Nc1ccc(N2CCOCC2)cc1`, the AC50 under setting [1] is 28.2 µM [rising, single point].

As for `CCCCn1c(=O)c(C=Nc2cc([N+](=O)[O-])ccc2OC)c(O)n(CCCCl)c1=O`, under setting [1], the AC50 is 0.461 µM [rising, full curve, poor fit].

For the compound `COc1ccc(C(=O)Nc2nc3ccccc3s2)c(OC)c1`, the half-maximal activity concentration (AC50) under setting [1] was 0.126 µM [falling, full curve].

As to `CCOC(=O)c1c(C)n(C(C)C)c2ccc(OC(=O)c3ccc(N4C(=O)CCC4=O)cc3)cc12`, the AC50 under setting [1] was 2.91 µM [rising, full curve].

Regarding `COc1cc(C)cc(CN2CC=C(c3ccccc3)CC2)c1O`, the AC50 under setting [1] was 7.94 µM [rising, partial curve].

On to `Cc1ccnc(-n2c(-c3ccco3)nc3ccccc3c2=O)c1`, for which the AC50 under setting [1] was 2.06 µM [rising, single point].

Turning to `COc1ccc(CNCCc2c(C)[nH]c3ccc(OC(F)(F)F)cc23)c(OC)c1`, under setting [1], the AC50 is 15.8 µM [falling, partial curve, poor fit].

As for `Cc1ccc(C(=O)O)cc1NS(=O)(=O)c1ccc2c(c1)oc(=O)n2C`, under setting [1], the AC50 was 11.2 µM [falling, single point].

In the case of `COc1cc(C(O)CN)ccc1O` (centres undefined), the AC50 under setting [1] was 16.4 µM [falling, partial curve].

Turning to `O=c1[nH]c(=O)n(Cc2ccco2)c(O)c1C=NC1CCN(Cc2ccccc2)CC1`, the AC50 under setting [1] was 10 µM [rising, partial curve, poor fit].

`COCCNC(=O)c1c(N)n(CCC(C)C)c2nc3ccccc3nc12`: the half-maximal activity concentration (AC50) under setting [1] was 1.46 µM [falling, partial curve, poor fit].

With `O=C1Nc2ccccc2C1Cc1nc2ccccc2c(=O)n1-c1ccccc1` (centres undefined), under setting [1], the AC50 is 17.8 µM [falling, single point].

In the case of `C/C(=N\Nc1nc(C)c(C)s1)c1ccc([N+](=O)[O-])cc1`, the AC50 under setting [1] is 10 µM [rising, partial curve].

For `CCC(=O)Nc1c(C(=O)Nc2ccc3c(c2)OCCO3)oc2ccccc12`, the half-maximal activity concentration (AC50) under setting [1] was 3.16 µM [falling, partial curve, poor fit].

In the case of `O=C(c1cccnc1)C1CCCN(Cc2nc(-c3cnccn3)no2)C1` (centres undefined), the concentration at half-maximal activity (AC50) under setting [1] is 3.98 µM [rising, partial curve, poor fit].

Take `Cc1cc(C(=O)OCC(=O)Nc2ccc(F)cc2F)c(C)n1C1CC1`: the AC50 under setting [1] was 3.26 µM [falling, partial curve, poor fit].

On to `C[C@]12CC[C@H](O)CC1=CCC1C2CC[C@]2(C)C(=O)[C@H](Br)CC12` (some centres undefined), for which the AC50 under setting [1] was 23.1 µM [falling, partial curve].

Take `O=c1[nH]c(=O)n(-c2cccc(F)c2)c(O)c1/C=C1\C=Nc2ccccc21`: under setting [1], the AC50 is 14.1 µM [falling, single point].

Take `COc1ccc(C(=O)CC2(CC(=O)c3ccc(OC)cc3)C(=O)N(C)C(=O)N(C)C2=O)cc1`: the AC50 under setting [1] was 0.58 µM [rising, full curve, poor fit].

`Cn1ccc(NC(=O)CCl)n1`: the AC50 under setting [1] is 15.8 µM [falling, single point].

Take `CN(C)c1nc(N(C)C)nc(N(C#N)CCCl)n1`: under setting [1], the AC50 was 35.5 µM [falling, single point].

Consider `COc1cc2c(c(OC)c1OC)-c1ccc(O)c(=O)cc1C(NC(C)=O)CC2` (centres undefined), for which the concentration at half-maximal activity (AC50) was 1.12 µM [rising, full curve, poor fit] under setting [1] and 0.126 µM [falling, full curve, poor fit] under setting [2].

`Cc1cccc(CN2C(=O)CN=C(c3ccccc3Cl)c3cc(Cl)ccc32)c1`: under setting [1], the AC50 was 12.6 µM [falling, single point].

With `CCn1c(O)c(C(=O)CC2NCCc3ccccc32)c(=O)n(CC)c1=S` (centres undefined), the AC50 under setting [1] was 1.58 µM [rising, partial curve, poor fit].

`CCOC(=O)c1c(NC(=O)/C=C\C(=O)O)sc(C)c1-c1ccccc1`: the half-maximal activity concentration (AC50) under setting [1] was 35.5 µM [falling, single point].

For `O=C(c1cccc2ccccc12)C1CCCN(Cc2ccon2)C1` (centres undefined), the half-maximal activity concentration (AC50) under setting [1] was 35.5 µM [falling, single point].

For the compound `Cc1cc(/C=C2/C(=O)NC(=O)N(c3ccc(Br)cc3)C2=O)c(C)n1C`, the AC50 under setting [1] is 0.1 µM [rising, full curve, poor fit].

For the compound `C[C@H]1O[C@@H](O[C@H]2[C@@H](O)C[C@H](O[C@H]3[C@@H](O)C[C@H](O[C@H]4CC[C@@]5(C)[C@H](CC[C@@H]6[C@@H]5CC[C@]5(C)[C@@H](C7=CC(=O)OC7)CC[C@]65O)C4)O[C@@H]3C)O[C@@H]2C)C[C@H](O)[C@@H]1O`, the half-maximal activity concentration (AC50) under setting [2] is 1.84 µM [rising, full curve].

In the case of `CCN(CC)CCN=Cc1c(O)n(C2CCCCCC2)c(=O)[nH]c1=O`, the half-maximal activity concentration (AC50) under setting [1] was 29.1 µM [rising, single point].

Turning to `CNS(=O)(=O)c1ccc(-c2ccc(C=C3C(=O)NC(=O)NC3=O)o2)cc1`, under setting [1], the AC50 was 15.8 µM [falling, single point].

With `Cc1cc(NC(=O)COC(=O)c2c(C)nn(Cc3ccccc3Cl)c2Cl)no1`, the AC50 under setting [1] was 7.31 µM [falling, single point].

For the compound `O=C(Nc1cccc(OC(=O)N2CCCCC2)c1)N1CCCCC1`, the AC50 under setting [1] is 0.116 µM [falling, full curve, poor fit].

Consider `O=c1oc(Nc2cccc(F)c2)nc2ccccc12`, for which, under setting [1], the AC50 was 1.58 µM [falling, full curve].

`CC(=O)c1c(O)cc(O)c(C(C)=O)c1O`: the AC50 under setting [1] was 35.5 µM [falling, single point].

`CCCCCn1c(=O)c(C(=O)NCc2ccncc2)c(O)c2ccccc21`: the concentration at half-maximal activity (AC50) under setting [1] is 14.1 µM [falling, partial curve, poor fit].

For `Cc1cccc(Cn2c(=O)oc3ccc(C)cc32)c1`, the AC50 under setting [1] is 5.62 µM [rising, partial curve, poor fit].

As for `CNC(=O)OCCc1n(C)cc[n+]1C`, the AC50 under setting [1] was 0.00411 µM [rising, full curve, poor fit].

As to `COc1ccc(NC(=O)CN(C)C(=O)Cn2c(=O)oc3ccccc32)cc1`, under setting [1], the concentration at half-maximal activity (AC50) is 0.164 µM [falling, full curve, poor fit].

For the compound `O=c1ccc2cc3ccoc3c(O)c2o1`, under setting [1], the AC50 is 0.164 µM [rising, full curve, poor fit].

Regarding `CCOP(=S)(OCC)SCC(=O)NC(C(=O)O)C(C)C` (centres undefined), under setting [1], the AC50 is 0.461 µM [falling, full curve, poor fit].

`COc1ccccc1OCCNCC(O)COc1cccc2[nH]c3ccccc3c12` (centres undefined): under setting [1], the AC50 is 11.2 µM [falling, partial curve] and 22.4 µM [falling, single point].

For the compound `COC(=O)C(O)(c1ccc(NC(=S)NC(=O)c2ccc(Cl)cc2Cl)cc1)C(F)(F)F` (centres undefined), the AC50 under setting [1] is 3.66 µM [falling, partial curve, poor fit].

For the compound `CN1CCC(NCCC(c2ccc(F)cc2)c2ccc(Cl)cc2)CC1` (centres undefined), the AC50 under setting [1] was 28.2 µM [falling, single point].

In the case of `O=c1oc2ccccc2c(O)c1[C@H]1c2ccc(O)cc2Oc2c1c(=O)oc1ccccc21`, the AC50 under setting [1] was 1.41 µM [falling, partial curve, poor fit] and the AC50 under setting [2] was 14.1 µM [rising, partial curve, poor fit].

As for `Cc1ccc(S(=O)(=O)NCCC(=O)Nc2ccc(Cl)cc2C(=O)c2ccccc2)cc1`, under setting [1], the AC50 was 29.1 µM [falling, single point].

`Cc1ccc(/C=C2\C(=O)NC(=S)N(c3ccccc3F)C2=O)s1`: the AC50 under setting [1] is 4.61 µM [falling, full curve].

For `COC(=O)C1=C(c2ccc(OC)c(OC)c2)C[C@@H]2CC[C@H]1N2C(=O)NCCc1ccccc1`, the AC50 under setting [1] is 5.17 µM [rising, partial curve, poor fit].

`O=C1NC(=S)N(Cc2ccco2)C(=O)/C1=C\c1cccs1`: under setting [1], the AC50 was 35.5 µM [falling, partial curve, poor fit].

Take `Cc1ccc(Nc2nc(N/N=C\c3ccc4c(c3)OCO4)nc(N3CCOCC3)n2)cc1`: under setting [1], the AC50 is 11.2 µM [falling, single point].

Regarding `c1ccc(Nc2cccc3ccccc23)cc1`, the AC50 under setting [1] is 25.9 µM [rising, single point].

Turning to `COc1ccc(-c2cc(=NCCC(=O)O)c3cc(C)ccc3o2)cc1`, under setting [1], the AC50 is 0.316 µM [rising, full curve, poor fit].

Regarding `CCc1c(C)nc(N)nc1N1N=C1SCCOc1ccccc1`, the AC50 under setting [1] is 11.2 µM [falling, partial curve].

In the case of `C[C@@H]1O[C@@H](O[C@H]2C[C@@H](O)[C@]3(CO)[C@@H]4C(CC[C@]3(O)C2)[C@@]2(O)CC[C@H](C3COC(=O)C3)[C@@]2(C)C[C@H]4O)[C@H](O)[C@H](O)[C@H]1O` (some centres undefined), under setting [1], the AC50 is 9.2 µM [falling, partial curve, poor fit].

As for `CN1/C(=C\C=C\C2=[N+](C)c3ccc4ccccc4c3C2(C)C)C(C)(C)c2ccccc21`, the AC50 under setting [1] is 11.2 µM [falling, single point].

Consider `O=C(/C=C/c1ccccc1)NCCc1cnc[nH]1`, for which the AC50 runs as follows: under setting [1], 35.5 µM [falling, single point]; under setting [2], 35.5 µM [rising, partial curve, poor fit].

For `O=C(O)C(F)(F)S(=O)(=O)O`, under setting [1], the AC50 was 31.6 µM [falling, single point].

Take `CCCN1CC(C)C(OC(C)=O)(c2ccccc2)CC1C` (centres undefined): the AC50 under setting [1] is 13 µM [rising, partial curve, poor fit].

In the case of `O=c1c2ccccc2nc(/C=C/c2ccc([N+](=O)[O-])o2)n1-c1ccc(O)cc1`, the AC50 is, setting by setting: under setting [1], 6.31 µM [falling, single point]; under setting [2], 2.82 µM [falling, full curve].

Regarding `COc1cc2c(cc1/C=C/[N+](=O)[O-])OCO2`, the AC50 under setting [1] is 15.8 µM [falling, partial curve].
